In publication PMC6454016:
Results are given in words; binding and its absence hold for the method and conditions named. Binding seen in cells or lysates may run through a third protein. A result given as binding can be weak or reduced; the word gives no strength.

Molecular target: T1, Tripartite Motif Protein 4 (TRIM4), endogenous (human (endogenous in RD)) (UniProt Q9C037)
T1 sequence: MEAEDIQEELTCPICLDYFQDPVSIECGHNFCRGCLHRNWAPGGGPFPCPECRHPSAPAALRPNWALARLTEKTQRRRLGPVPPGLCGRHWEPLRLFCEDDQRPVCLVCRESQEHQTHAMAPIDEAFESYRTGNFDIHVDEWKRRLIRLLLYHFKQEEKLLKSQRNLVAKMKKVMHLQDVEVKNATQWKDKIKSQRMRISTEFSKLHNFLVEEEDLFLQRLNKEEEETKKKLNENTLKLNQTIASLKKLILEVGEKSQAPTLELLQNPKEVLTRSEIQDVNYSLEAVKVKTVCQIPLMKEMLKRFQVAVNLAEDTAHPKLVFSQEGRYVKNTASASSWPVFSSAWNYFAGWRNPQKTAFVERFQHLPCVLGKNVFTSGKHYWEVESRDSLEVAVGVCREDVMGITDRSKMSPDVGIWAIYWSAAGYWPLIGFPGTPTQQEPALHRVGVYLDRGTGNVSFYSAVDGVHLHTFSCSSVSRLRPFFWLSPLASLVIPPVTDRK
Assay: co-IP

Substance: EV-A71 2C protein made during infection (enterovirus A71 (Fuyang strain))
- binding: binds
